According to PMC6422396:
These are yes or no findings as the source states them, for the method shown. Some results given as binding are weak or reduced against the parent protein; the word gives no strength. Where a sequence is shown, tags or fusion partners need not be part of it.

Target: Toh1-YFP hybrid protein (full size Toh1 fused to YFP) (S. cerevisiae) (UniProt P46992)
Assay: SDD-AGE; semi-denaturing detergent agarose gel electrophoresis; extracts treated 10 min with 1% SDS at room temperature or boiled with SDS; Western blot with antibody to GFP

- binding: binds
B1: Toh1-YFP hybrid protein (full size Toh1 fused to YFP) (protein, UniProt P46992 20-368)
chain: SGPQSYQKLDFTNVGFTGSYVDVNKFKDITNNESCTCEVGDRVWFSGKNAPLADYLSVHFRGPLKLKQFAFYTSPGFTVNNSRSSSDWNRLAYYESSSKTADNVTFLNHGGEASPCLGNALSYASSNGTGSASEATVLADGTLISSDQEYIIYSNVSCPKSGYDKGCGVYRSGIPAYYGYGGTTKMFLFEFEMPTETEKNSSSIGYYDLPAIWLLNDHIARTSQYPTNANCSCWASGCGEYDIFEAMNGTEKNHLYSTFHTFQGIEDLGTGIQSYGYITRNTTGTMKGGVVFDSSGNVVSFISDATPFNGTVSADTVNDLLAAIPENETYSSQLMSISATAPSTTSKSN
